This is an account of results in patent US10822723.

Sequences of proteins named here, by UniProt entry; tags and fusion partners are left off. A change or cut given only in a name is not applied to a line headed by its entry. Residues count along the entry.
UniProt O96013: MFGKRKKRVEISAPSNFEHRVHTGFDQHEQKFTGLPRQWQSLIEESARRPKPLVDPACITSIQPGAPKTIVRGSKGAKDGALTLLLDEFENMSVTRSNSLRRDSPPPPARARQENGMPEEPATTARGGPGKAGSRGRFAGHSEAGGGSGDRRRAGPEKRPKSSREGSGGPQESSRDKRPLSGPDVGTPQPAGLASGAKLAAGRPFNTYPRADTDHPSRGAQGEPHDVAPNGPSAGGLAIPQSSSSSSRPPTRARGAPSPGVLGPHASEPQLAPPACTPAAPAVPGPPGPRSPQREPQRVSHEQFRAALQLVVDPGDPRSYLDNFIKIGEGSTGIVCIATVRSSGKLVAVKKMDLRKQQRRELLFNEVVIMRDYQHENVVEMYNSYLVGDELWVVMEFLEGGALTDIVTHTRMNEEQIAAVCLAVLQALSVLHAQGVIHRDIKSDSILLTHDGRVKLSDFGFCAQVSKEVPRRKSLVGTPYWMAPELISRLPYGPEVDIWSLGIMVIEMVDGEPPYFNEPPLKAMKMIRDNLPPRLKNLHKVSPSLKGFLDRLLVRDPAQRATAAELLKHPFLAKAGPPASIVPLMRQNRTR
Flag-PAK4cat, catalytic domain of human PAK4 expressed in mammalian cells: residues 286-591 of O96013
UniProt Q9NTI7: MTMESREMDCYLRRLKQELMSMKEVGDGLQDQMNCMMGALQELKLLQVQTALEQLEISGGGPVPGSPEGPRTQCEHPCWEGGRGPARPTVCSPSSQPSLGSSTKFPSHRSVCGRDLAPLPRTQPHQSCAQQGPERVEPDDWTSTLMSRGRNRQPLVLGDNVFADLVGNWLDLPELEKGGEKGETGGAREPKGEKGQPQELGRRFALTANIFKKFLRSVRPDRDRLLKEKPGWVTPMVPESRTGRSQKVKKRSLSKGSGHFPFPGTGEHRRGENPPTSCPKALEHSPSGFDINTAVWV
UniProt Q96EL1, residues 166-203: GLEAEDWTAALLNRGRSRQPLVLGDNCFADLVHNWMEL

Results are given in words; binding and its absence hold for the method and conditions named. For some assays here: In cells and extracts the contact can be indirect. Some results given as binding are weak or reduced against the parent protein; the word gives no strength.

Assay [1] deals with FLAG-tagged wild type PAK4 (human) (UniProt O96013). Put plainly: co-immunoprecipitation.
Assay [2] has as its target Flag-PAK4cat, catalytic domain of human PAK4 expressed in mammalian cells (human) (UniProt O96013). Put plainly: co-expression with PAK4cat in mammalian cells, formation of co-crystals.

On to Inka2 (from UniProt Q9NTI7 1-297), for which the binding result in assay [1] is “binds”. Turning to “HA-tagged Inka1 (166-203) (from UniProt Q96EL1 166-203)”, the binding entry in assay [2] is given as “binds”.
